Reference: publication PMC13137973
These are yes or no findings as the source states them, for the method shown. For part of these data: Binding seen in cells or lysates may run through a third protein. Some results given as binding are weak or reduced against the parent protein; the word gives no strength.

Protein sequences, listed by entry. Tags and fused reporters are not part of them. Residues count along the entry.
UniProt P20333, residues 23-461: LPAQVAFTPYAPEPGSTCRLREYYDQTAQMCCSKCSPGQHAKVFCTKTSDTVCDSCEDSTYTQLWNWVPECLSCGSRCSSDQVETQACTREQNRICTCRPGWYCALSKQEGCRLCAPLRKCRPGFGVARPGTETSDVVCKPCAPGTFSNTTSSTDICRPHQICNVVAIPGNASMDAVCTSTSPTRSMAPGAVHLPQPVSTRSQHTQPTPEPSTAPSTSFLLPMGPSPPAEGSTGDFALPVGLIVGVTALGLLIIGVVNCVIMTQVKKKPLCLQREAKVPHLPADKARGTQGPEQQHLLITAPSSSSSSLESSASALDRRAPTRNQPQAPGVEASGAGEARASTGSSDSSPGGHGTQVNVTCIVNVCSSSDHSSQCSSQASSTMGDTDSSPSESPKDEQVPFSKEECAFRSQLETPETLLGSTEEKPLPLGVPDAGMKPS

Key:
[1] = target: human immunodeficiency virus 1 (HIV-1) (group M, subtype B, Isolate MN) gp120 Protein (HIV-1 (group M, subtype B, isolate MN)) (UniProt P05877); assay: co-IP; recombinant gp120 (5 µg/mL) added to lysate of HEK293T cells stably expressing TNFR2, 2 h 4 °C; anti-gp120 antibody or control rabbit IgG on Protein G Dynabeads overnight; blot with anti-TNFR2; only the target purified
[2] = target: CCR5 on CCR5+CD4- 293T cells (UniProt P51681); assay: flow cytometry on cells; only the binder purified
[3] = target: TNFR2 stably expressed in HEK293T cells (293T-TNFR2) (human) (UniProt P20333); assay: flow cytometry on cells; gp120 on TNFR2-expressing 293T cells, alone or after pre-incubation of gp120 with VRC01; MFI; only the binder purified

Substance | binding [1] | binding [2] | binding [3]
TNFR2 stably expressed in HEK293T cells (293T-TNFR2) (from UniProt P20333 23-461) (receptor) | binds | – | –
human immunodeficiency virus 1 (HIV-1) (group M, subtype B, Isolate MN) gp120 Protein (from UniProt P05877 30-513) | – | binds | binds
